# Laboratory results from PMC11932694.
# Chains of the proteins cited; added tags and fusions are not shown.
# UniProt Q14694: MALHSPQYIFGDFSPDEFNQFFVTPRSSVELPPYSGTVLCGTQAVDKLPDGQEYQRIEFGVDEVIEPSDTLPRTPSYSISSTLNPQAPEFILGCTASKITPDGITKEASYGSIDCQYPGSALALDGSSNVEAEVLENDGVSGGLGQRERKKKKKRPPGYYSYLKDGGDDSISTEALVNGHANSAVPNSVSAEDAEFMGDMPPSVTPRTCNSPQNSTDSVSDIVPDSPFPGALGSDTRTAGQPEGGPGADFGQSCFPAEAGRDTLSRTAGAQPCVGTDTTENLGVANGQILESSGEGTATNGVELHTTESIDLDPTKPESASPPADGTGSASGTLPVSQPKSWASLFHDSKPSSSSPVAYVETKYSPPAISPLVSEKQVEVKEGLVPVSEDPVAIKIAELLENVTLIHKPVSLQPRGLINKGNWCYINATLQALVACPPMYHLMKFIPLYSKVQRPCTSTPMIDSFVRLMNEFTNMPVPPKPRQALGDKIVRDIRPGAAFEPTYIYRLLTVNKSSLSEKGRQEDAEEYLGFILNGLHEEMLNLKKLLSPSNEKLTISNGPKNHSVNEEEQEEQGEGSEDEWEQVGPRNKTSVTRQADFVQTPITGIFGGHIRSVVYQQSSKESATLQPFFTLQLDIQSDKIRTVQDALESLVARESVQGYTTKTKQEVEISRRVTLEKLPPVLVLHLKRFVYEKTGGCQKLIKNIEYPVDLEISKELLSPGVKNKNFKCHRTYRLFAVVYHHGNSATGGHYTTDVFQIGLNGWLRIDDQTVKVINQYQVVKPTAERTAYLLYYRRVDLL
# UniProt Q7Z434: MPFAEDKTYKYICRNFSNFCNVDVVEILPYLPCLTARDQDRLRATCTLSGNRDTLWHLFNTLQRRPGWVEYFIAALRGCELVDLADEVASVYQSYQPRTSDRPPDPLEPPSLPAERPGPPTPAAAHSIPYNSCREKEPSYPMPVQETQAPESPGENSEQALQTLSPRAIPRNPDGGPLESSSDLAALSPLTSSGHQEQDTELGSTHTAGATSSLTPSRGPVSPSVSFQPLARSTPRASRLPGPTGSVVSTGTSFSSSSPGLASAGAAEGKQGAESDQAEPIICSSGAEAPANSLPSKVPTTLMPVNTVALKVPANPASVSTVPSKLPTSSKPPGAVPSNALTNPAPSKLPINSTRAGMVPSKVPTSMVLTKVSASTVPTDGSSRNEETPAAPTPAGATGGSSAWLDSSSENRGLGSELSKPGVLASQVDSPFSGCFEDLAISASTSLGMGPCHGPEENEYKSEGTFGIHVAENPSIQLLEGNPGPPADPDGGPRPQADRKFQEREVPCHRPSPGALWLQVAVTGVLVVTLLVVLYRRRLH
# Results are given in words; binding and its absence hold for the method and conditions named. In cells and extracts the contact can be indirect. Some binding calls cover weakened binding; strength is not graded here. For some of these results: Tags and fused reporters may be left off the sequences shown.
# B1: RIG-I-Myc (protein, UniProt O95786 1-925)
# chain: MTTEQRRSLQAFQDYIRKTLDPTYILSYMAPWFREEEVQYIQAEKNNKGPMEAATLFLKFLLELQEEGWFRGFLDALDHAGYSGLYEAIESWDFKKIEKLEEYRLLLKRLQPEFKTRIIPTDIISDLSECLINQECEEILQICSTKGMMAGAEKLVECLLRSDKENWPKTLKLALEKERNKFSELWIVEKGIKDVETEDLEDKMETSDIQIFYQEDPECQNLSENSCPPSEVSDTNLYSPFKPRNYQLELALPAMKGKNTIICAPTGCGKTFVSLLICEHHLKKFPQGQKGKVVFFANQIPVYEQQKSVFSKYFERHGYRVTGISGATAENVPVEQIVENNDIIILTPQILVNNLKKGTIPSLSIFTLMIFDECHNTSKQHPYNMIMFNYLDQKLGGSSGPLPQVIGLTASVGVGDAKNTDEALDYICKLCASLDASVIATVKHNLEELEQVVYKPQKFFRKVESRISDKFKYIIAQLMRDTESLAKRICKDLENLSQIQNREFGTQKYEQWIVTVQKACMVFQMPDKDEESRICKALFLYTSHLRKYNDALIISEHARMKDALDYLKDFFSNVRAAGFDEIEQDLTQRFEEKLQELESVSRDPSNENPKLEDLCFILQEEYHLNPETITILFVKTRALVDALKNWIEGNPKLSFLKPGILTGRGKTNQNTGMTLPAQKCILDAFKASGDHNILIATSVADEGIDIAQCNLVILYEYVGNVIKMIQTRGRGRARGSKCFLLTSNAGVIEKEQINMYKEKMMNDSILRLQTWDEAVFREKILHIQTHEKFIRDSQEKPKPVPDKENKKLLCRKCKALACYTADVRVIEECHYTVLGDAFKECFVSRPHPKPKQFSSFEKRAKIFCARQNCSHDWGIHVKYKTFEIPVIKIESFVVEDIATGVQTLYSKWKDFHFEKIPFDPAEMSK
# B2: ORMDL3 (co-transfected in Figure 6A; tag not named) (protein, UniProt Q8N138 1-153)
# chain: MNVGTAHSEVNPNTRVMNSRGIWLSYVLAIGLLHIVLLSIPFVSVPVVWTLTNLIHNMGMYIFLHTVKGTPFETPDQGKARLLTHWEQMDYGVQFTASRKFLTITPIVLYFLTSFYTKYDQIHFVLNTVSLMSVLIPKLPQLHGVRIFGINKY
# Columns and labels:
# Flag-USP10 [1] = molecular target: Flag-USP10 (UniProt Q14694); experiment: co-IP; HEK293T cells transfected with Flag-USP10 and RIG-I-Myc, with or without ORMDL3 co-transfection; lysates immunoprecipitated with anti-Flag antibody, blots with anti-Flag and anti-Myc
# Flag-USP10 [2] = molecular target: Flag-USP10 (UniProt Q14694); experiment: co-IP; HEK293T cells transfected with RIG-I-Myc and EV or Flag-USP10; lysates immunoprecipitated with anti-Flag antibody, blots with anti-Flag and anti-Myc
# Flag-MAVS = Flag-MAVS (UniProt Q7Z434); experiment: co-IP; HEK293T cells co-transfected with a Flag-tagged protein and GFP-tagged ORMDL3 (whole or truncated); lysates immunoprecipitated with anti-Flag antibody and protein A/G beads, blots with anti-GFP and anti-Flag; in Figure 5B with or without poly(I:C) co-transfection
Binder,binding (Flag-USP10 [1]),binding (Flag-USP10 [2]),binding (Flag-MAVS)
B1,binds,binds,–
B2,binds,–,–
"MNVGTAHSEVNPNTRVMNSRGIWLSYVLAIGLLHIVLLSIPF (domain or fragment, UniProt Q8N138 1-42) [ORMDL3 (1–42aa)]",–,–,binds
"VSVPVVWTLTNLIHNMGMYIFLHTVKGTPFETPDQGKARL (domain or fragment, UniProt Q8N138 43-82) [ORMDL3 (43–82aa)]",–,–,binds
"LTHWEQMDYGVQFTASRKFLTITPIVLYFLTSFYTK (domain or fragment, UniProt Q8N138 83-118) [ORMDL3 (83–118aa)]",–,–,binds
"YDQIHFVLNTVSLMSVLIPKLPQLHGVRIFGINKY (domain or fragment, UniProt Q8N138 119-153) [ORMDL3 (119–153aa)]",–,–,binds
